“Also recorded” adds a separate entry of the source. For at least one compound, name, drawing or mass did not settle the structure.
System: miR-130a
Experiment: miR-130a expression in PPARγ-expressing HepG2 cell lines (stem-loop qPCR)
Format: cell-based, human
Details: stable PPARγ-expressing HepG2 cell lines, U6 snRNA internal control
Description: Rosiglitazone and GW9662 were from Sigma. […] At 24 h post-transfection, Rosiglitazone or GW9662 in 0.1% DMSO was added to medium. Culture medium was changed ever two days before harvest.
Briefly, 100 ng RNAs were reverse transcribed by specific stem-loop primer and further analyzed by Taqman real-time PCR assay using default setting. […] Data were analyzed by Applied Biosystems 7500 software V2.0.1.

Compound: CN(CCOc1ccc(CC2SC(=O)NC2=O)cc1)c1ccccn1 (stereo not shown) [Rosiglitazone]
- expression of miR-130a: further reduced; also recorded: further reduction
